The results in this text go back to the supplement of paper PMC10849652.

Amino acid sequences for entries named in this document (tags omitted). A change or cut given only in a name is not applied to a line headed by its entry.
UniProt Q04656: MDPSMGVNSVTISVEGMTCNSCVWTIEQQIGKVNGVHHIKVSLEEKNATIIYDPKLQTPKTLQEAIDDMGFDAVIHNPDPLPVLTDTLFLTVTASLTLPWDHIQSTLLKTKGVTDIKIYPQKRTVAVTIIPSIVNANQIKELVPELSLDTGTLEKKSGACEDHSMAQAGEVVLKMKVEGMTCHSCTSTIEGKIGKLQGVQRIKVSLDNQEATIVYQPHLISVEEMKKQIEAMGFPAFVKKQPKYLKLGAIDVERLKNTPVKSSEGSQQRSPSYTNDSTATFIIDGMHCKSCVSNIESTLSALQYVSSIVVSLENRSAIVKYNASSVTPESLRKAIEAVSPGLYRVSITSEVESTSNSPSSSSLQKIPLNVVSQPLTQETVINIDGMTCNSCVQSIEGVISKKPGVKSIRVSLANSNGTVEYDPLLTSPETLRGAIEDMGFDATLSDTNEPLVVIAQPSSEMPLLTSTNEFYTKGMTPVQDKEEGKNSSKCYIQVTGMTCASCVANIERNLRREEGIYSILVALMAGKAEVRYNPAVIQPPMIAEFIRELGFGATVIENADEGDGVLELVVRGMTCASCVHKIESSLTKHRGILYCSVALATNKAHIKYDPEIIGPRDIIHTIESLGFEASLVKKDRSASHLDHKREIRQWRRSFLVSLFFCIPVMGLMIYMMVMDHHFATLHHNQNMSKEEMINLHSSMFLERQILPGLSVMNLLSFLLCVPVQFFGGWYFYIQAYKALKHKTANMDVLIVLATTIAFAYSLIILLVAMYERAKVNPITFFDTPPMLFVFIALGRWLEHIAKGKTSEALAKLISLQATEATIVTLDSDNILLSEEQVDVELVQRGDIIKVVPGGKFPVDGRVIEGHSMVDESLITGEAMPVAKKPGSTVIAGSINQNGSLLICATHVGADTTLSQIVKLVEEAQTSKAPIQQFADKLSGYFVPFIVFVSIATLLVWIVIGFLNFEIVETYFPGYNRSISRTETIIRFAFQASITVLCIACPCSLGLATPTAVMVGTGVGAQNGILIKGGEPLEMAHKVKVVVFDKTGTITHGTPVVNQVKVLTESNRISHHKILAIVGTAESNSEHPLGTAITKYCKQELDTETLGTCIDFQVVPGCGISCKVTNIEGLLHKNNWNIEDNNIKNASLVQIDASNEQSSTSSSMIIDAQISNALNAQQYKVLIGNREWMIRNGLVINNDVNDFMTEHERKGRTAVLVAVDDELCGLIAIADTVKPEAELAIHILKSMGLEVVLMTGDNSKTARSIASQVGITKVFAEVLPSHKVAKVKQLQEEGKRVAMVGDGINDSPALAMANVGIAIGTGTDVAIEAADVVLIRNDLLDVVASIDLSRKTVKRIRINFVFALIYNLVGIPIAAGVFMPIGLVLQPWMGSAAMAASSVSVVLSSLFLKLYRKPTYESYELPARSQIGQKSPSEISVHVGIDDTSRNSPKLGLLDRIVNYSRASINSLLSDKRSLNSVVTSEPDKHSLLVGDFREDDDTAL
UniProt P04424, whole entry, looked up: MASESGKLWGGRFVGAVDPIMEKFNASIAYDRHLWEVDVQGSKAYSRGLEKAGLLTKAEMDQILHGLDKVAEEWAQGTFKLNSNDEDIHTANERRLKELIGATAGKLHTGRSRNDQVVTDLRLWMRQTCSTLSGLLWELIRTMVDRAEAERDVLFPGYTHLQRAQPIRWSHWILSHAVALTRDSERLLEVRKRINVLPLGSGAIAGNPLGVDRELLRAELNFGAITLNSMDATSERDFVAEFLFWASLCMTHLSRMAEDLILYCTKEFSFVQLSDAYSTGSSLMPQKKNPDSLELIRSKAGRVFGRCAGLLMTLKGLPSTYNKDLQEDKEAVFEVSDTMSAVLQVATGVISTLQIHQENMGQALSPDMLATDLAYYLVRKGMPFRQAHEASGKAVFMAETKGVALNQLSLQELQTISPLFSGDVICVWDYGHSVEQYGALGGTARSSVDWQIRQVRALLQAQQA
UniProt Q92747, whole entry, looked up: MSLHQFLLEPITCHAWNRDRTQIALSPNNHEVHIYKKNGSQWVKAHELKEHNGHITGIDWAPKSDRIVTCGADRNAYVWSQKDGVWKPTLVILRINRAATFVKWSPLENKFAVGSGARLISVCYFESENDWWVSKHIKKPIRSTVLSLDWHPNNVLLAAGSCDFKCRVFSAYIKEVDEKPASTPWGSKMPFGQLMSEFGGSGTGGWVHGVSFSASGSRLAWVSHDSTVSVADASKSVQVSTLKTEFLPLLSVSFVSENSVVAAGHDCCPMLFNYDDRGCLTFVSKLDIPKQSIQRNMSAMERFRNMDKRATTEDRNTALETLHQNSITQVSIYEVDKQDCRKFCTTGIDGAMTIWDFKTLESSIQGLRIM
UniProt P56381: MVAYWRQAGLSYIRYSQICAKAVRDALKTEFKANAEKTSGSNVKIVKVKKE
UniProt O95260: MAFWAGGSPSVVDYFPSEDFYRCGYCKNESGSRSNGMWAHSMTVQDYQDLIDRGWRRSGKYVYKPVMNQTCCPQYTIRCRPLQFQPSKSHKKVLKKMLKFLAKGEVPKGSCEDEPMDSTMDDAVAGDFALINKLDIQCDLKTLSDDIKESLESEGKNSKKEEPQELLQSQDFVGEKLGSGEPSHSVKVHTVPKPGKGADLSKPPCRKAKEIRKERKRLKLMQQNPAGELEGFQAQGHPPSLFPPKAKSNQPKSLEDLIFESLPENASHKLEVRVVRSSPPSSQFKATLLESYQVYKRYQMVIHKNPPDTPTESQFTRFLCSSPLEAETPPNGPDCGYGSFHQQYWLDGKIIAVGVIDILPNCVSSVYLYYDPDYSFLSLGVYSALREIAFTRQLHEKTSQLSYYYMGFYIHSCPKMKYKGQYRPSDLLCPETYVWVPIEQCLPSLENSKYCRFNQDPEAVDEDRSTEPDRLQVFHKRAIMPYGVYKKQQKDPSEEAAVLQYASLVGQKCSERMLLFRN
UniProt Q6DD88: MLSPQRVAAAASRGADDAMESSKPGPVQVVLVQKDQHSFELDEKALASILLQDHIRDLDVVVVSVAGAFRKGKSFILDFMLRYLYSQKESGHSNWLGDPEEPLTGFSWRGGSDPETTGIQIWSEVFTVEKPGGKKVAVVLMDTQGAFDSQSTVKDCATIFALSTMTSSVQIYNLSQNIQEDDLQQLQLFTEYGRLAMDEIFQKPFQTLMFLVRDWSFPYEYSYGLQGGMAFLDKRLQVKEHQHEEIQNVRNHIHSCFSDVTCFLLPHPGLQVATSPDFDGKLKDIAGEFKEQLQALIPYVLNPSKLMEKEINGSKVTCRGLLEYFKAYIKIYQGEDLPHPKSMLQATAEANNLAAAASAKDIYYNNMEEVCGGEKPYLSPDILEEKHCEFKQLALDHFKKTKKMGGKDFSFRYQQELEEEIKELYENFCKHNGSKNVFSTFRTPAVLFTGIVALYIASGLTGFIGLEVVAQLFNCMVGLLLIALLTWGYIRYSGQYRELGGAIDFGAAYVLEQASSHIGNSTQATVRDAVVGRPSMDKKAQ
UniProt Q06055: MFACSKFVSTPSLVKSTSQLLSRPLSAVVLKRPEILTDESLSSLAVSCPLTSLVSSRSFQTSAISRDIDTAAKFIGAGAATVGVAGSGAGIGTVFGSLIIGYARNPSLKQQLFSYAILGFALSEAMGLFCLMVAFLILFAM
UniProt Q9NVT9: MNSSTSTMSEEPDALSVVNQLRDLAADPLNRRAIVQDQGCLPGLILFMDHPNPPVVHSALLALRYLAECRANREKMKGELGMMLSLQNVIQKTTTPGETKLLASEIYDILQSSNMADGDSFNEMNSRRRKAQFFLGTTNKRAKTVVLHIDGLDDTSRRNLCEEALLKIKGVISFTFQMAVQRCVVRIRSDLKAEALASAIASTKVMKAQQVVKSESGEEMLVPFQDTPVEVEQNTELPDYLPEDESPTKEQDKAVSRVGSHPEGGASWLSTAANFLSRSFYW
UniProt Q9H2C2: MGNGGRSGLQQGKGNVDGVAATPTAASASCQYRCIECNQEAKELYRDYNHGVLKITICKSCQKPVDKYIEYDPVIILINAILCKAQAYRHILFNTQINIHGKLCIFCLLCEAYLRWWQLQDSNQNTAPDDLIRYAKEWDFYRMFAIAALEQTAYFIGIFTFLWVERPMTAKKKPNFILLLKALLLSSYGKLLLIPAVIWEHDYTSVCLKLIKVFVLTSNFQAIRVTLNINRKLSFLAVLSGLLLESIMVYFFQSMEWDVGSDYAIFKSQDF
UniProt Q8NB49: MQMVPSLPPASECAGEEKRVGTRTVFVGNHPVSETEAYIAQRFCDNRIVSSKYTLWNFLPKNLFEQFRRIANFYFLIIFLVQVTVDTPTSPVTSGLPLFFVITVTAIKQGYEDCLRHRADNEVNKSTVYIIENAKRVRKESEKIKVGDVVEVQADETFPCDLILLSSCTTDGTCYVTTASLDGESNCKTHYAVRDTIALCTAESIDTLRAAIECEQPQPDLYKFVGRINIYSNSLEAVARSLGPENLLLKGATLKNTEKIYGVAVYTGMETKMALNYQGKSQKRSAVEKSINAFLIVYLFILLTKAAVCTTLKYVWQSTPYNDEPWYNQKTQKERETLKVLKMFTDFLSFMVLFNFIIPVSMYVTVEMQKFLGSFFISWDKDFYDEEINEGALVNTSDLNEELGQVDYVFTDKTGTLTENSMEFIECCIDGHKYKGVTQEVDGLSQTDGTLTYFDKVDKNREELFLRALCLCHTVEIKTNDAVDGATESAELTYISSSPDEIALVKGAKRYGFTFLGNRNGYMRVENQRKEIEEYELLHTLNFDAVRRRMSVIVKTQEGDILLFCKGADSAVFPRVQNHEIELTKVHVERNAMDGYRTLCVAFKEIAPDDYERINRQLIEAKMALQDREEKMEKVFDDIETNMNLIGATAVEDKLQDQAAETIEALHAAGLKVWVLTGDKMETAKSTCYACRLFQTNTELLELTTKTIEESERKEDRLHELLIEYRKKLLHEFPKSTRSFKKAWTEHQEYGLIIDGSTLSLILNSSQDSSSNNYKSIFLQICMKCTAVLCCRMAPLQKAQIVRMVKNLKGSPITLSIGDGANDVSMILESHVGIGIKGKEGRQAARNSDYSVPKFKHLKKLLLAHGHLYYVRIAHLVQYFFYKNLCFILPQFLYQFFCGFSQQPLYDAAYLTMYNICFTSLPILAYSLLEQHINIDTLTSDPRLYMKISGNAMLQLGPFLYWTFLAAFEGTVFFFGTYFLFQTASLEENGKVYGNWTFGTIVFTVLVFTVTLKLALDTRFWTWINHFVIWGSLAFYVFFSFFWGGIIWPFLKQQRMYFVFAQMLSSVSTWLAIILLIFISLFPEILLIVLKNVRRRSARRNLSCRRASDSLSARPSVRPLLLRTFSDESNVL
UniProt P23634: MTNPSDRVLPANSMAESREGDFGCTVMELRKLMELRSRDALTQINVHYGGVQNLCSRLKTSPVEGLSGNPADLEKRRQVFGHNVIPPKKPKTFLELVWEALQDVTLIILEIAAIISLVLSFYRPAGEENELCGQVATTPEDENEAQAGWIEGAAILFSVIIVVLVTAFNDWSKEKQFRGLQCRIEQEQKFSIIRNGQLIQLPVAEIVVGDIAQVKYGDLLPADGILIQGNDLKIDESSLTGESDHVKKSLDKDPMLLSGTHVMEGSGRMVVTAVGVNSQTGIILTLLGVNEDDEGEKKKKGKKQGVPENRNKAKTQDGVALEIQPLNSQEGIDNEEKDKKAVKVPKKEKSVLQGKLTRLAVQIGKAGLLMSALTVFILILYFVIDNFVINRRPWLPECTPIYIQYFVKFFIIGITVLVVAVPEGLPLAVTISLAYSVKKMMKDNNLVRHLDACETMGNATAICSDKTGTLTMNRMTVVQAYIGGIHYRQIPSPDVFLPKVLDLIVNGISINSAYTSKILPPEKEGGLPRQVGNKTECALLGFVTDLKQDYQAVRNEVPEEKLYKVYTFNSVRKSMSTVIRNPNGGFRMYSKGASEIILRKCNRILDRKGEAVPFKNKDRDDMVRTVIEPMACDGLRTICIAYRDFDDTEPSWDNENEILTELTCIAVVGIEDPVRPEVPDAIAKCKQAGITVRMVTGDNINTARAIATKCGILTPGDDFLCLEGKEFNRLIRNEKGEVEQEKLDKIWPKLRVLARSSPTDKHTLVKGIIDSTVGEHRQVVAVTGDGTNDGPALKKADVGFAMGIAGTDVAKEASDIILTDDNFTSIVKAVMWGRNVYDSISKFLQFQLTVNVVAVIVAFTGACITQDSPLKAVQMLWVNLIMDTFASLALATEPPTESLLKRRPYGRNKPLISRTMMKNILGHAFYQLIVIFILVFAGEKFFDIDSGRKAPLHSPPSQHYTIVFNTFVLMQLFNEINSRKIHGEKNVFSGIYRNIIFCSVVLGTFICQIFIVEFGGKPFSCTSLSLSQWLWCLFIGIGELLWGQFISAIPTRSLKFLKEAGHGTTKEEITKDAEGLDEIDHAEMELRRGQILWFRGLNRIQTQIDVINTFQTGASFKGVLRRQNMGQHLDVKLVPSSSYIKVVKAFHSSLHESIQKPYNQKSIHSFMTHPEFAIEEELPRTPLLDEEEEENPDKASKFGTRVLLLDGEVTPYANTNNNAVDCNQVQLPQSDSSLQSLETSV

The list shows a part of the results.

Compound in the first assay: CCN(CCCOc1ccc2c(Nc3cc(CC(=O)Nc4cccc(F)c4)[nH]n3)ncnc2c1)CCOP(=O)(O)O [barasertib]
The experiment in a line: log2 fold change, soluble protein after heating vs DMSO (PISA); higher = thermal stabilisation; K562 cells, 10 uM, 30 min; active = over 0.2 and 3.5 SD of the protein, either way, in both replicates (recomputed). Summed up:
(§1)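 K562 cells at 2×10^6 cells/mL were treated for 30 min with 10 μM compound, and aliquots were heated for 3 min over 48°C-58°C before pooling. Extraction used PBS with 0.5% NP-40 at 4°C, and soluble protein was the supernatant after 21,000xg for 90 min, measured by TMTpro 16plex LC-MS/MS with channel sums equalised. Thermal stability values, relative to control samples and from duplicates, are log2 fold changes.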
For ATP7A isoform 3 (UniProt Q04656), the log2 fold change is inactive: 0.015.

As to ARPC1B (UniProt O15143), the log2 fold change is inactive: 0.012.

Take ASAP1 isoform 2 (UniProt Q9ULH1): the log2 fold change is inactive: 0.091.

For ATG3 (UniProt Q9NT62), the log2 fold change was inactive: 0.027.

In the case of ARL6IP1 (UniProt Q15041), the log2 fold change is inactive: 0.024.

With ATG2A isoform 3 (UniProt Q2TAZ0), the log2 fold change is inactive: 0.037.

With ARRB2 isoform 4 (UniProt P32121), the log2 fold change is inactive: 0.011.

For the target ATP5MF (UniProt P56134), the log2 fold change was inactive: -0.016.

As for ASPM (UniProt Q8IZT6), the log2 fold change was inactive: 0.026.

As to ATP6V1A (UniProt P38606), the log2 fold change was inactive: 0.004.

Take ATP11B (UniProt Q9Y2G3): the log2 fold change is inactive: -0.019.

For the target ASL (UniProt P04424), the log2 fold change is inactive: 0.012.

As to ATP6AP2 (UniProt O75787), the log2 fold change is inactive: 0.025.

ASAH1 isoform 2 (UniProt Q13510): the log2 fold change was inactive: -0.052.

In the case of ATP5F1A (UniProt P25705), the log2 fold change was inactive: 0.01.

As to ARIH2 (UniProt O95376), the log2 fold change was inactive: 0.036.

As for ARPC3 (UniProt O15145), the log2 fold change is inactive: 0.024.

Turning to ATPAF2 (UniProt Q8N5M1), the log2 fold change was inactive: -0.007.

Regarding ATG2B (UniProt Q96BY7), the log2 fold change is inactive: 0.014.

For the target ARPC1A (UniProt Q92747), the log2 fold change was inactive: 0.009.

Regarding ATP5F1E (UniProt P56381), the log2 fold change is inactive: 0.017.

As for ATE1 isoform 2 (UniProt O95260), the log2 fold change was inactive: 0.072.

Consider ASPH (UniProt Q12797), for which the log2 fold change was inactive: -0.039.

Consider ATP2C1 isoform 7 (UniProt P98194), for which the log2 fold change is inactive: -0.046.

With ATL3 (UniProt Q6DD88), the log2 fold change is inactive: -0.005.

With ARPC5 (UniProt O15511), the log2 fold change is inactive: 0.026.

As for ARPC2 (UniProt O15144), the log2 fold change is inactive: 0.003.

For the target ATP5MC2 isoform 2 (UniProt Q06055), the log2 fold change is inactive: -0.003.

Regarding ARMC1 (UniProt Q9NVT9), the log2 fold change was inactive: 0.041.

Consider ATF2 (UniProt P15336), for which the log2 fold change was inactive: -0.011.

As for ATP6V0D1 (UniProt P61421), the log2 fold change was inactive: 0.033.

For the target ASCC3 (UniProt Q8N3C0), the log2 fold change was inactive: -0.168.

As for ARPC4 isoform 3 (UniProt P59998), the log2 fold change is inactive: 0.003.

Turning to ARV1 (UniProt Q9H2C2), the log2 fold change was inactive: -0.025.

As for ARSB (UniProt P15848), the log2 fold change was inactive: 0.013.

For the target ASF1A (UniProt Q9Y294), the log2 fold change was inactive: 0.029.

Turning to ATP11C (UniProt Q8NB49), the log2 fold change is inactive: -0.009.

As for ATP2B4 (UniProt P23634), the log2 fold change is inactive: -0.011.

Compound in the next assay: CC[C@@H]1C(=O)N(C)c2cnc(Nc3ccc(C(=O)NC4CCN(C)CC4)cc3OC)nc2N1C1CCCC1
Described as above. Put shortly: as §1
Take ATP7A isoform 3 (UniProt Q04656): the log2 fold change was inactive: 0.001.

On to ARPC1B (UniProt O15143), for which the log2 fold change is inactive: 0.061.

Turning to ASAP1 isoform 2 (UniProt Q9ULH1), the log2 fold change is inactive: -0.051.

For the target ATG3 (UniProt Q9NT62), the log2 fold change was inactive: -0.032.

Consider ARL6IP1 (UniProt Q15041), for which the log2 fold change was inactive: -0.056.

As for ATG2A isoform 3 (UniProt Q2TAZ0), the log2 fold change was inactive: -0.019.

With ARRB2 isoform 4 (UniProt P32121), the log2 fold change was inactive: -0.05.

In the case of ATP5MF (UniProt P56134), the log2 fold change was inactive: 0.041.

ASPM (UniProt Q8IZT6): the log2 fold change is inactive: 0.103.

ATP6V1A (UniProt P38606): the log2 fold change is inactive: -0.076.

As to ATP11B (UniProt Q9Y2G3), the log2 fold change was inactive: 0.055.

Regarding ASL (UniProt P04424), the log2 fold change is inactive: -0.012.

On to ATP6AP2 (UniProt O75787), for which the log2 fold change was inactive: 0.017.

For the target ASAH1 isoform 2 (UniProt Q13510), the log2 fold change was inactive: -0.085.

For ATP5F1A (UniProt P25705), the log2 fold change is inactive: 0.027.

As to ARIH2 (UniProt O95376), the log2 fold change was inactive: -0.074.

Regarding ARPC3 (UniProt O15145), the log2 fold change was inactive: -0.031.

In the case of ATPAF2 (UniProt Q8N5M1), the log2 fold change is inactive: 0.121.

As for ATG2B (UniProt Q96BY7), the log2 fold change was inactive: -0.036.

Turning to ARPC1A (UniProt Q92747), the log2 fold change was inactive: 0.096.

Take ATP5F1E (UniProt P56381): the log2 fold change is inactive: -0.03.

With ATE1 isoform 2 (UniProt O95260), the log2 fold change is inactive: -0.003.

In the case of ASPH (UniProt Q12797), the log2 fold change was inactive: 0.109.

As for ATP2C1 isoform 7 (UniProt P98194), the log2 fold change was inactive: 0.002.

As to ATL3 (UniProt Q6DD88), the log2 fold change is inactive: -0.034.

As to ARPC5 (UniProt O15511), the log2 fold change was inactive: 0.051.

With ARPC2 (UniProt O15144), the log2 fold change is inactive: 0.045.

As for ATP5MC2 isoform 2 (UniProt Q06055), the log2 fold change was inactive: 0.022.

As to ARMC1 (UniProt Q9NVT9), the log2 fold change was inactive: -0.061.

For ATF2 (UniProt P15336), the log2 fold change is inactive: 0.313.

Take ATP6V0D1 (UniProt P61421): the log2 fold change is inactive: -0.11.

On to ASCC3 (UniProt Q8N3C0), for which the log2 fold change is inactive: 0.146.

Regarding ARPC4 isoform 3 (UniProt P59998), the log2 fold change was inactive: 0.038.

ARV1 (UniProt Q9H2C2): the log2 fold change was inactive: 0.11.

For the target ARSB (UniProt P15848), the log2 fold change is inactive: -0.048.

With ASF1A (UniProt Q9Y294), the log2 fold change was inactive: -0.034.

ATP11C (UniProt Q8NB49): the log2 fold change was inactive: 0.089.

As to ATP2B4 (UniProt P23634), the log2 fold change is inactive: 0.079.
